Experimental data published in patent publication US20090111753A1, “Nogo-A Polypeptide Fragments, Variant Nogo Receptor-1 Polypeptides, and Uses Thereof” (Yale University, priority 2004, published 2009).
Residue numbers refer to the chain shown, from its start. Names and notes keep the numbering of the source. No constants are given. Whether binding was seen depends on the method and setting. Some entries that bind do so weakly or less than the wild type.

What was measured:
Assay in all cases: AP-ligand binding, COS-7
[1] = target: T1, human NgR1 alanine mutant 171, 172, 175, 176, 196, 199 (human) (UniProt Q9BZR6)
T1 sequence: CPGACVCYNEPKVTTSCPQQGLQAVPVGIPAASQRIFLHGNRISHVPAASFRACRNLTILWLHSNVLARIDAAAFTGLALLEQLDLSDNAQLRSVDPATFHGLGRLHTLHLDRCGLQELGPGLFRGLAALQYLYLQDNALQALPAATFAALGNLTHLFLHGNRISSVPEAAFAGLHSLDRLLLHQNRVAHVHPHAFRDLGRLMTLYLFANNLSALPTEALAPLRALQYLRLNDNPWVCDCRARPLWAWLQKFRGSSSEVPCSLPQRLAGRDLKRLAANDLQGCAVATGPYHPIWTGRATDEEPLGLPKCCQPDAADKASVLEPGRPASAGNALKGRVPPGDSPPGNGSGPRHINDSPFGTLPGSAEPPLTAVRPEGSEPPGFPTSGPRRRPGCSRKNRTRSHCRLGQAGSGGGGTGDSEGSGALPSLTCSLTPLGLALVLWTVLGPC

[2] = target: T2, human NgR1 alanine mutant 189, 191 (human) (UniProt Q9BZR6)
T2 sequence: T1 sequence with A145D, A146D, A149R, A150D, R163A, S165A, A170R, A173R

[3] = target: T3, human NgR1 alanine mutant 256, 259 (human) (UniProt Q9BZR6)
T3 sequence: T1 sequence with A145D, A146D, A149R, A150D, A170R, A173R, R230A, D233A

[4] = target: T4, human NgR1 alanine mutant 256, 259, 284 (human) (UniProt Q9BZR6)
T4 sequence: T1 sequence with A145D, A146D, A149R, A150D, A170R, A173R, R230A, D233A, E258A

[5] = target: T5, human NgR1 alanine mutant 61 (human) (UniProt Q9BZR6)
T5 sequence: T1 sequence with R35A, A145D, A146D, A149R, A150D, A170R, A173R

[6] = target: T6, human NgR1 alanine mutant 95, 97, 122 (human) (UniProt Q9BZR6)
T6 sequence: T1 sequence with R69A, D71A, D96A, A145D, A146D, A149R, A150D, A170R, A173R

Measured: binding

B1: AP-Nogo-66 (ligand, UniProt Q9NQC3 1055-1120, looked up)
chain: RIYKGVIQAIQKSDEGHPFRAYLESEVAISEELVQKYSNSALGHVNCTIKELRRLFLVDDLVDSLK
notes: domain: Nogo-66; construct described elsewhere (Fournier 2001); also called AP-Ng66; Ng66; not shown: alkaline phosphatase (AP); construct described elsewhere
binds: all assays above

B2: AP-fused Amino-Nogo fragment B4C (a.a. 950-1018) (ligand)
chain: LLPPDVSALATQAEIESIVKPKVLVKEAEKKLPSDTEKEDRSPSAIFSAELSKTSVVDLLYWRDIKKTG
notes: also called AmNg B4C; AP-B4C; not shown: alkaline phosphatase (AP), vector pcAP6
binds: all assays above
